Data: patent US20040235049A1 (priority 2001, published 2004)
For some assays here: Where a sequence shows no end group, the ends are not given.

What was measured:
[1] = general procedure: Fmoc solid-phase peptide synthesis; methyl-2,3-O-isopropylidene-D-tartryl-Val-PEGA resin; Fmoc-PAL-PEG-PS; Novasyn TGR; HBTU/HOBt/DIEA; TBTU/HOBt/DIEA; settings: whole synthesis, scale of the general procedure 0.02 mole (24 peptides), 0.1 mmole; for final HPLC purity: analytical RP-HPLC, MALDI-TOF
[2] = general procedure: Fmoc solid-phase peptide synthesis; Novasyn TGR; HBTU/HOBt/DIEA; TBTU/HOBt/DIEA; settings: whole synthesis, scale 0.1 mmole

| Substance | final HPLC purity [1] [%] | isolated yield [1] [%] | crude mass [2] [mg] | isolated mass [2] [mg] |
| --- | --- | --- | --- | --- |
| AAKLSGLGIN | 72 | 30 | – | – |
| AIPLEAIKGG | 80 | 30 | – | – |
| DVSVIPTSGD | 63 | 26 | – | – |
| EAIKGGRHLL | 75 | 34 | – | – |
| ELAAKLSGLG | 72 | 32 | – | – |
| GKAIPLEAIK | 90 | 32 | – | – |
| GLDVSVIPTS | 36 | 29 | – | – |
| GLGINAVAYY | 15 | 6 | – | – |
| IPLEAIKGGR | 76 | 30 | – | – |
| IPTSGDVVVV | 40 | 21 | – | – |
| KAIPLEAIKG | 91 | 30 | – | – |
| LAAKLSGLGI | 75 | 27 | – | – |
| LDVSVIPTSG | 78 | 28 | – | – |
| LEAIKGGRHL | 76 | 31 | – | – |
| PLEAIKGGRH | 31 | 35 | – | – |
| PTSGDYVVVA | 46 | 17 | – | – |
| SGLGINAVAY | 86 | 60 | – | – |
| SVIPTSGDVV | 64 | 30 | – | – |
| VIPTSGDVVV | 86 | 26 | – | – |
| VSVIPTSGDV | 60 | 28 | – | – |
| YGKAIPLEAI | 89 | 30 | – | – |
| biotin-GGKAYVLAG peptide (P-0193) | – | – | 69 | 35.72 |
